# Assay results: PubChem BioAssay AID504444 (National Center for Advancing Translational Sciences (NCATS), 2011)
# Among all 360,000 compounds or so, about 7,500 (2.1%) were called active. This list was built around the results that the source calls inconclusive (neither active nor inactive); the mix of calls is not that of the screen. Calls follow the shape of the dose curve; as a rule, active = well fitted inhibition curve with a large enough effect; inconclusive = small, poorly fitted or top-dose-only effect, or effect the other way; inactive = flat fitted curve, though single readings scatter. Where the call is inconclusive, the potency comes from a doubtful curve fit.
# Assay: Nrf2 qHTS screen for inhibitors; also: nearly all actives have a fitted effect of over 60% in size
# Conditions: A549 ARE-Fluc reporter, luciferase luminescence, 18-24 h; series mostly up to 46 µM
# Method in brief: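 A549 ARE_Fluc cells (5000/well, 5% FBS OPTI-MEM) pre-incubated 2 h, then treated with compounds 18-24 h at 37C/5% CO2 in concentration-response. CellTiter-Fluor viability read first; BugLite luciferase luminescence after 15 min at room temperature gives Nrf2 activity.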
# Potency is read from the fitted curve at half-maximal effect.
row,SMILES,Potency
1,COc1ccc(C2=NOC(Cn3nc(C(=O)NCc4ccc(C)cc4)cc3-c3ccccc3)C2)cc1 (configuration not stated),"inconclusive: 29.1 µM [falling, single point]"
2,Cc1cc(C(=O)O)c(=O)[nH]c1C,inactive
3,CC(C)(C)c1ccc(-c2noc(C(=O)NN)n2)cc1,inactive
4,O=C(O)Cn1c(-c2ccccn2)nc2ccccc21,"inconclusive: 29.1 µM [activator, single point]"
5,Nc1nc(-c2ccc(F)cc2)cc(C(F)(F)F)n1,inactive
6,Cc1ccc(S(=O)(=O)Nc2c(NC3CCCCC3)c3ccccc3oc2=O)cc1,"inconclusive: 3.26 µM [falling, partial curve, poor fit]"
7,CCCCCC(=O)NC(=S)NNC(=O)c1ccc([N+](=O)[O-])cc1,"inconclusive: 14.6 µM [falling, partial curve]"
8,Cc1cccc(NC(=O)c2cccc(S(=O)(=O)N3CCc4ccccc4C3)c2)n1,"inconclusive: 18.4 µM [falling, partial curve, poor fit]"
9,CCOC(=O)Cc1csc(NC(=O)c2csc(C)c2)n1,"inconclusive: 10.3 µM [falling, partial curve, poor fit]"
10,CC1CCC(C(C)C)C(=O)/C1=C/c1ccc(N)cc1 (configuration not stated),"inconclusive: 9.2 µM [activator, partial curve]"
11,CC1CCCCN1C(=O)CSc1nc(-c2ccccc2)no1 (configuration not stated),"inconclusive: 2.59 µM [activator, full curve]"
12,COc1cc(NC(=S)NCCC(c2ccccc2)c2ccccc2)c(OC)cc1Cl,"inconclusive: 29.1 µM [falling, single point]"
13,Cc1ccc(NC(=O)CN2C(=O)C(c3ccccc3)=NC23CCCCC3)cc1C,"inconclusive: 32.6 µM [falling, single point]"
14,COc1ccc(N2CSC3=C(C#N)C(c4cccc(OC)c4OC)CC(=O)N3C2)cc1 (configuration not stated),inactive
15,COc1ccc(-n2c(C)nc3c(cnn3-c3ccc(C)c(C)c3)c2=O)cc1Cl,"inconclusive: 16.4 µM [activator, partial curve, poor fit]"
16,O=C(OCc1ccccc1)/C(=C(\O)c1ccccc1Br)c1ccc(-c2ccccc2)cn1,inactive
17,COc1cc([N+](=O)[O-])ccc1NC(=S)Nc1cc(C(=O)OC(C)C)cc(C(=O)OC(C)C)c1,"inconclusive: 29.1 µM [falling, single point]"
18,CCS(=O)(=O)N1CCCc2cc(C(=O)Nc3cc([N+](=O)[O-])ccc3C)ccc21,"inconclusive: 23.1 µM [falling, single point]"
19,Cc1ccc(C)c(C(=O)N(Cc2nc(-c3ccc(Cl)cc3)no2)C(C)C)c1,"inconclusive: 29.1 µM [falling, single point]"
20,O=S(=O)(c1ccc(NC(=S)NN=Cc2ccccc2O)cc1)N1CCCCC1,"inconclusive: 7.31 µM [falling, partial curve, poor fit]"
21,Cc1c(Cc2ccccc2)c(=O)oc2c(CN(C)C)c(O)c(Cl)cc12,"inconclusive: 25.9 µM [falling, partial curve, poor fit]"

row,SMILES,Potency
1,CCN(CC)CCCNC(=O)c1cn(CC)c2ccc(S(=O)(=O)N3CCC(C)CC3)cc2c1=O,"inconclusive: 29.1 µM [falling, single point]"
2,COCCNC(=O)CSc1nc2ccc(N3CCOCC3)cc2c(=O)n1Cc1ccc(OC)cc1,"inconclusive: 0.82 µM [activator, full curve, poor fit]"
3,COC(=O)CSc1nnc(-c2ccc3c(c2)OCO3)n1C,"inconclusive: 0.82 µM [falling, partial curve, poor fit]"
4,COc1ccc(-c2ccc(SCC(=O)c3cccs3)nn2)cc1,"inconclusive: 9.2 µM [activator, partial curve]"
5,COc1cc2c(cc1OC)CN(c1ccc(F)cc1[N+](=O)[O-])CC2,"inconclusive: 13 µM [activator, partial curve]"
6,COc1ccc(Nc2nc3c(S(=O)(=O)c4ccccc4)nnn3c3ccc(Cl)cc23)cc1,"inconclusive: 0.461 µM [falling, full curve]"
7,COC(=O)c1cc(OC)c(OC)cc1NC(=O)c1ccco1,inactive
8,CSc1cccc(-n2nnc(-c3nsc(NC(=O)c4cccs4)n3)c2C)c1,"inconclusive: 4.11 µM [falling, single point]"
9,CSc1cccc(NC(=O)C2CC(=O)N(Cc3ccccc3)C2)c1 (configuration not stated),inactive
10,Cc1ccc(CSCCNC(=O)c2cccc([N+](=O)[O-])c2)cc1,"inconclusive: 13 µM [falling, partial curve]"
11,Cc1ccc(S(=O)(=O)Oc2ccc3c(c2)O/C(=C\c2cccnc2)C3=O)cc1,inactive
12,O=C(Nc1cnn(Cc2ccc(Cl)cc2Cl)c1)c1noc2c1CCCC2,"inconclusive: 23.1 µM [falling, single point]"
13,CCCNS(=O)(=O)c1ccc2c(c1)n(C)c(=O)n2C,"inconclusive: 3.66 µM [falling, full curve, poor fit]"
14,Cc1ccc(C2(C)NC(=O)N(CC(=O)c3ccc(Cl)s3)C2=O)cc1 (configuration not stated),inactive
15,CCn1c(SCC(=O)Nc2ccc3c(c2)c2ccccc2n3CC)nnc1-c1cnccn1,"inconclusive: 14.6 µM [falling, single point]"
16,COc1ccc(NC(=O)c2ccco2)cc1NC(=O)c1cc2ccccc2o1,inactive
17,C/C(=N\NC(=S)NC1CCCCC1)c1ccc(C)o1,"inconclusive: 3.66 µM [activator, full curve, poor fit]"
18,CCNC(=O)c1c(O)c2cccc3c2n(c1=O)CC3,"inconclusive: 13 µM [activator, partial curve]"
19,Cc1nn(C(C)(C)C)c(OC(=O)c2cccs2)c1Sc1ccccc1,"inconclusive: 25.9 µM [falling, partial curve, poor fit]"
20,O=C(/C=C/c1ccc(Cl)c(Cl)c1)N1CCc2ccccc21,"inconclusive: 13 µM [activator, partial curve]"
21,CCOC(=O)C(C(=O)OCC)C(=O)c1cc(OC)c(OC)c(OC)c1,"inconclusive: 6.51 µM [activator, single point]"

# Looked up by structure from the list above:
row,SMILES,Potency
1,CCN(CC)CCCNC(=O)c1cn(CC)c2ccc(S(=O)(=O)N3CCC(C)CC3)cc2c1=O,"inconclusive: 29.1 µM [falling, single point]"
21,CCOC(=O)C(C(=O)OCC)C(=O)c1cc(OC)c(OC)c(OC)c1,"inconclusive: 6.51 µM [activator, single point]"
7,COC(=O)c1cc(OC)c(OC)cc1NC(=O)c1ccco1,inactive
